Taken from: PubChem BioAssay AID652259 (Drosophila RNAi Screening Center, 2013)
In all, the deposit lists about 22,000 reagents; shown is an unselected part of those with a known target gene and a result. Over the whole deposit, 233 (1.1%) are marked active. 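Light values are raw, unnormalised plate reads; the ratio scores behind the reporter calls were not deposited.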 Entries without a mark were called inactive. Not given: the amount of reagent, the time to read-out, the dose of the treatment.

- Purpose: 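Knock-downs that push a Wingless-driven reporter up or down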 (primary screen)
- System: Drosophila clone 8 imaginal disc epithelial cells
- Knock-down reagent: long dsRNA against Drosophila genes
- Conditions: pathway stimulated by co-transfected Wingless expression plasmid
- Measurement: 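Dual luciferase reads per well after Wingless plasmid stimulation: reporter firefly light and Renilla control light; activity is firefly divided by Renilla, a ratio not deposited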
- Scale: firefly reporter light: higher = more Wg reporter light, before normalisation; Renilla control light: higher = more transfected or surviving cells
- Rule for the call: 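Strong candidates differ from their plate mean by at least two out of four per-plate statistical tests; weak candidates meet just one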
- Calls: active = candidate regulator (raises or lowers reporter); inactive = not a candidate

gene | amplicon | reporter change call, replicate 1 | firefly reporter light, replicate 1 | firefly reporter light, replicate 2 | Renilla control light, replicate 1 | Renilla control light, replicate 2
CG4393 | DRSC15573 | – | 19863 | – | 16519 | –
Hpd (4-hydroxyphenylpyruvate dioxygenase) | DRSC11670 | – | 6405 | – | 2455 | –
CG2528 | DRSC03724 | – | 1562 | 5895 | 603 | 2311
NKCC (sodium potassium chloride cotransporter) | DRSC12140 | – | 7015 | – | 2345 | –
NKCC (sodium potassium chloride cotransporter) | DRSC12311 | – | 11288 | – | 3146 | –
CG31544 (retired record) | DRSC12466 | – | 1862 | – | 1068 | –
mip40 (Myb-interacting protein 40) | DRSC06541 | – | 11785 | – | 5362 | –
CG13814 (retired record) | DRSC10069 | – | 15076 | – | 2772 | –
ssx | DRSC18492 | – | 2337 | 7105 | 731 | 837
Ork1 (Open rectifier K[+] channel 1) | DRSC20266 | – | 3094 | 5701 | 795 | 2240
Dso1 (Daisho1) | DRSC21815 | – | 3.42e5 | 3.06e5 | 1.43e5 | 1.41e5
sand (sandman) | DRSC07245 | – | 2784 | 4380 | 881 | 2096
Mst89B | DRSC16748 | – | 18603 | – | 4413 | –
CG13144 | DRSC02241 | – | 2668 | 5522 | 672 | 2934
Irbp18 (Inverted repeat binding protein 18 kDa) | DRSC10612 | – | 9802 | – | 3778 | –
l(3)73Ah (lethal (3) 73Ah) | DRSC11359 | – | 6890 | – | 2445 | –
RpS4 (Ribosomal protein S4) | DRSC11272 | – | 4059 | – | 1840 | –
Syx13 (Syntaxin 13) | DRSC09836 | – | 6285 | – | 2125 | –
CG3164 | DRSC00572 | – | 1984 | 4992 | 996 | 2008
CG12290 | DRSC14497 | – | 1458 | 5792 | 976 | 2131
Indy (I'm not dead yet) | DRSC10393 | – | 4161 | – | 1836 | –
CG10801 | DRSC17761 | – | 12090 | – | 8598 | –
zetaCOP (Coat Protein (coatomer) zeta) | DRSC11412 | – | 5538 | – | 2120 | –
Incenp (Inner centromere protein) | DRSC06116 | – | 17895 | – | 6528 | –
Incenp (Inner centromere protein) | DRSC21950 | – | 4.71e5 | 5.09e5 | 1.70e5 | 1.81e5
cpo (couch potato) | DRSC13265 | – | 5258 | – | 2231 | –
cpo (couch potato) | DRSC13273 | Wg reporter activity raised | 8037 | – | 1928 | –
cpo (couch potato) | DRSC14503 | Wg reporter activity raised (active) | 16524 | – | 1355 | –
cpo (couch potato) | DRSC15327 | – | 11043 | – | 1002 | –
cpo (couch potato) | DRSC16926 | – | 13869 | – | 1233 | –
insc (inscuteable) | DRSC04695 | – | 2640 | 6416 | 1107 | 3386
BI-1 (Bax Inhibitor-1) | DRSC10782 | – | 2284 | – | 1100 | –
CG42827 | DRSC16116 | – | 18642 | – | 16333 | –
Tep1 (Thioester-containing protein 1) | DRSC03450 | – | 1840 | 3585 | 820 | 2104
Sf3a1 (Splicing factor 3a subunit 1) | DRSC15166 | – | 4293 | 5938 | 1034 | 1733
CG3630 | DRSC18499 | – | 3280 | 4900 | 1419 | 2188
CG13049 | DRSC09930 | – | 8752 | – | 3607 | –
CG4945 | DRSC06904 | – | 12920 | – | 3792 | –
Nek2 | DRSC18124 | – | 3992 | 10252 | 1785 | 3469
Pbp95 (PSEA-binding protein 95kD) | DRSC15448 | – | 10358 | – | 3083 | –
Gp210 (Glycoprotein 210 kDa) | DRSC04861 | – | 2339 | 7530 | 903 | 2680
Gp210 (Glycoprotein 210 kDa) | DRSC04900 | – | 14230 | – | 4955 | –
wfs1 (wolfram syndrome 1) | DRSC15676 | – | 13208 | – | 12155 | –
Dph1 (Diphthamide biosynthesis 1) | DRSC09851 | – | 3622 | – | 1796 | –
alpha-Est5 (alpha-Esterase-5) | DRSC12617 | – | 6976 | – | 1396 | –
Noa36 | DRSC16761 | – | 1720 | 7419 | 957 | 2844
betaTry (betaTrypsin) | DRSC07582 | – | 12213 | – | 5450 | –
betaTry (betaTrypsin) | DRSC22377 | – | 7.88e5 | 8.34e5 | 3.63e5 | 3.64e5
CG14408 | DRSC19595 | – | 2550 | 6288 | 1069 | 1984
